According to PMC3652601, “Structure of a dimeric crenarchaeal Cas6 enzyme with an atypical active site for CRISPR RNA processing” (Biochemical Journal, 2013):
These are yes or no findings as the source states them, for the method shown.

Target: SsoCas6-L170D/V202D (Sulfolobus solfataricus) (UniProt Q97Y96)
Test: SEC; calibrated gel filtration, HiLoad 26/600 Superdex 200, 20 mM Tris/HCl pH 7.5, 1 M NaCl; calibrated with Bio-Rad standards; both purified

B1: SsoCas6-L170D/V202D (enzyme, UniProt Q97Y96 2-287)
chain: PLIFKIGYNVIPLQDVILPTPSSKVLKYLIQSGKLLPSLNNLITSRDKYKPIFISHLGLNQRRIFQTNGNLKTISRGSKLSSTIAFSTQVNVLPELDEGVFETIYGKFHITIESVEIVEVEKLKEEVEKHMNDNIRVRFISPTLLSSKVLLPPSLSERYKRVNAGYSTDPSVGLIVAYAYNVYCNLIGKKEVEVRAFKFGDISNALSRIIGYDLHPVTIVIGEDSKGNLRKARGVMGWIEFDIPDEKLKRRALRYLLASSYLGIGRSRGIGFGEIKLEFIKREENH
In the case of B1, the binding is reported as “no binding”.
